PubChem BioAssay AID540303 (National Center for Advancing Translational Sciences (NCATS), 2011)
Out of some 330,000 compounds screened, about 1,000 (0.3%) were called active. Inconclusive means that the source gave no clear call. Such entries were picked first, then a sample of the others. The call rests on the fitted dose curve; in most records, active means well fitted inhibition curve with a large enough effect; inconclusive means small, poorly fitted or top-dose-only effect; inactive means no such curve, though single readings can be large or run the other way; tested in mouse RAW 264.7 cells. Potencies beside an inconclusive call are fits to weak or partial responses and may not hold up.

Assay: qHTS for Inhibitors of Cell Surface uPA Generation; further: nearly all actives have a fitted effect of over 55% in size
Conditions: cell surface uPA generation assay; series mostly up to 38.3 µM; activity change, negative = inhibition: at the top concentration
In short: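 Validation set in qHTS format. RAW 264.7 cells were pre-plated overnight and then exposed to compounds (up to 38.3 uM final) for 24 h at 37 C in 5% CO2, followed by a luminescent ATP-Lite measurement.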
On the % scale 0 is the no-effect control and ±100 the full control effect; potency means the concentration at half of the fitted maximal effect.

For `Cc1ccccc1-n1c(=O)cc(N2CCc3ccccc32)[nH]c1=O`, which Potency is on record?
The Potency was inconclusive: 3.55 µM [inhibitor, partial curve, poor fit].

For `COC(=O)c1ccc(C(=O)NC2CCCc3c2cnn3-c2ccccc2F)nc1` (centres undefined), which Potency is on record?
The Potency was inconclusive: 2 µM [inhibitor, partial curve].

With `COc1ccc(CC(=O)NCc2cccs2)cc1` as the molecule, how does the “activity change, negative = inhibition” value read?
The value was inactive: -7.02%.

With `O=C(Cn1cnc2ccccc21)Nc1ccc2c(c1)OCCCO2` as the molecule, how does the Potency read?
The Potency was inconclusive: 6.31 µM [inhibitor, partial curve, poor fit].

Which “activity change, negative = inhibition” value does the source give for `COc1cc(/C=C2\S/C(=N/S(=O)(=O)c3ccccc3)NC2=O)c([N+](=O)[O-])cc1OC` here?
Its value is inactive: 0.873%.

For `CCN(CC)S(=O)(=O)c1cc(OC)ccc1N=Nc1ccc(O)c2ncccc12`, which Potency is on record?
Its Potency is inconclusive: 2.82 µM [inhibitor, single point].

For `CC(C)Nc1nc2c(c(=O)n(C)c(=O)n2C)n1C`, which Potency is on record?
Its Potency is inconclusive: 2.82 µM [inhibitor, single point].

With `C=CC[C@@H](CC(=O)N(CCO)Cc1ccccc1)C(=O)N[C@H](COC(=O)[C@@H](CC=C)Cc1ccc(F)cc1)Cc1ccccc1` as the molecule, how does the Potency read?
The Potency was inconclusive: 10 µM [inhibitor, single point].

With `O=C(NCCc1ccccc1)c1ccc2c(c1)S(=O)(=O)c1cc(Cl)ccc1C2=O` as the molecule, how does the Potency read?
Its Potency is inconclusive: 6.31 µM [inhibitor, partial curve, poor fit].

For `Cc1ccc(-c2cc(C(=O)OCC(=O)NC3CC3)c3ccccc3n2)cc1`, which Potency is on record?
Its Potency is inconclusive: 5.01 µM [inhibitor, partial curve, poor fit].

For `COc1ccc(N2CSC3=C(C#N)C(c4cc(OC)ccc4OC)CC(=O)N3C2)c(OC)c1` (centres undefined), which Potency is on record?
The Potency was inconclusive: 11.2 µM [inhibitor, single point].

Which Potency does the source give for `CCC(CO)Oc1cc(NCc2ccc(C(C)(C)C)cc2)c2ncn(C(C)C)c2c1` (centres undefined) here?
The Potency was inconclusive: 11.2 µM [inhibitor, partial curve, poor fit].

With `CC(C)(C)OC(=O)N(Cc1ccccc1)Cc1ccccc1OCc1cccc(NC(=O)C2CCC2)c1` as the molecule, how does the Potency read?
The Potency was inconclusive: 31.6 µM [inhibitor, single point].

With `COc1ccccc1C(=O)Nc1nnc(SCC(=O)Nc2ccc3c(c2)oc2ccccc23)s1` as the molecule, how does the “activity change, negative = inhibition” value read?
The value was inactive: 3%.

With `Cn1ncc(Br)c1C(=O)Nc1ccc(Br)cn1` as the molecule, how does the “activity change, negative = inhibition” value read?
The value was inactive: 0.0185%.

Which Potency does the source give for `CC(=O)/C=C/c1ccccc1Oc1c(F)c(F)nc(F)c1F` here?
Its Potency is inconclusive: 4.47 µM [inhibitor, partial curve, poor fit].

For `O=C(CNC(=O)C(c1ccccc1)c1ccccc1)N/N=C/c1ccc(O)cc1O`, which Potency is on record?
Its Potency is inconclusive: 11.2 µM [inhibitor, partial curve, poor fit].

Which “activity change, negative = inhibition” value does the source give for `Clc1ccc(-c2csc(NNC3=NCCCCC3)n2)cc1` here?
Its value is inactive: -4.74%.

With `COc1ccccc1C1CC(=O)Nc2cc3c(cc21)OCCO3` (centres undefined) as the molecule, how does the Potency read?
Its Potency is inconclusive: 0.891 µM [inhibitor, full curve, poor fit].

For `COc1cc(/C=C2\SC(=S)N(CC(=O)NC(C)(C)C)C2=O)cc(OC)c1OC`, which Potency is on record?
The Potency was inconclusive: 8.91 µM [inhibitor, single point].

For `COC(=O)CNC(=S)NC(=O)c1ccc(C(C)(C)C)cc1`, which Potency is on record?
The Potency was inconclusive: 22.4 µM [inhibitor, single point].

With `Cc1c(/C=N/NC(=O)COc2ccccc2[N+](=O)[O-])c2ccccc2n1C` as the molecule, how does the Potency read?
Its Potency is inconclusive: 12.6 µM [inhibitor, single point].

For `COc1ccc(CC(=O)N/N=C(\C)c2cccc(NC(=O)C3CC3)c2)cc1`, which “activity change, negative = inhibition” value is on record?
The value was inactive: -2.89%.

Which Potency does the source give for `Oc1ccc(C[C@H]2CNCCN2CCc2cccc3ccccc23)cc1` here?
Its Potency is inconclusive: 7.94 µM [inhibitor, partial curve, poor fit].

Which “activity change, negative = inhibition” value does the source give for `Cc1cc2ccccc2n1CCNC(=O)C1CC1` here?
Its value is inactive: -23.9%.

Which “activity change, negative = inhibition” value does the source give for `CCCOC(=O)C1=C(C)NC2=C(C(=O)CCC2)C1c1cccc(OC)c1OC` (centres undefined) here?
The value was inactive: 4.11%.

With `CCOc1ccc(CCNC(=O)c2cc3ccccn3n2)cc1OCC` as the molecule, how does the Potency read?
Its Potency is inconclusive: 12.6 µM [inhibitor, single point].

For `COc1cc(NC(=O)c2ccc([N+](=O)[O-])o2)ccc1NC(=O)c1ccco1`, which Potency is on record?
The Potency was inconclusive: 1 µM [inhibitor, partial curve, poor fit].

With `CC(C)OCC(O)CN1CCN(C(c2ccccc2)c2ccccc2)CC1` (centres undefined) as the molecule, how does the Potency read?
The Potency was inconclusive: 11.2 µM [inhibitor, partial curve, poor fit].

With `CCc1cc(C(=O)Nc2nc(-c3ccccn3)cs2)sc1C` as the molecule, how does the Potency read?
Its Potency is inconclusive: 2.24 µM [inhibitor, full curve, poor fit].

Which Potency does the source give for `O=S(=O)(CC(CN1CCCCC1)N1CCCCC1)c1ccccc1` (centres undefined) here?
Its Potency is active: 8.91 µM.

For `COc1cccc(C(=O)NCCSc2ccc(C)cc2)c1`, which “activity change, negative = inhibition” value is on record?
Its value is inactive: 0.512%.

For `CC(C)n1cc(CN2CCC(C(=O)Nc3cccc(-c4cccc(Cl)c4)c3)CC2)cn1`, which Potency is on record?
The Potency was inconclusive: 28.2 µM [inhibitor, single point].

For `COc1cc(NC(=O)COc2cccc3c2OC(C)(C)C3)cc(OC)c1OC`, which Potency is on record?
The Potency was inconclusive: 28.2 µM [inhibitor, single point].

With `O=C1c2ccccc2NC(c2ccc(-c3cccc(F)c3)o2)N1O` (centres undefined) as the molecule, how does the Potency read?
The Potency was inconclusive: 12.6 µM [inhibitor, single point].

Which “activity change, negative = inhibition” value does the source give for `CCOC(=O)CCCNC(=O)CN1C(=O)NC(c2ccccc2)(c2ccccc2)C1=O` here?
Its value is inactive: -4.52%.

Which Potency does the source give for `O=C(c1ccc(-c2ccc(Cl)cc2Cl)o1)N1CCOCC1` here?
The Potency was inconclusive: 8.91 µM [inhibitor, partial curve, poor fit].

With `CNc1nc(-c2ccccc2)cc(-c2ccccc2)n1` as the molecule, how does the Potency read?
The Potency was inconclusive: 11.2 µM [inhibitor, single point].

Which Potency does the source give for `Cc1ccc(S(=O)(=O)N(C)c2nc3ccccc3n3c(C(C)C)nnc23)cc1` here?
The Potency was inconclusive: 1 µM [inhibitor, single point].

Which “activity change, negative = inhibition” value does the source give for `O=[N+]([O-])c1ccccc1S(=O)(=O)c1ccccc1` here?
Its value is inactive: 16.4%.

With `O=c1[nH]c2cc3c(cc2cc1CN(CCN1CCOCC1)C(=S)NCC1CCCO1)OCO3` (centres undefined) as the molecule, how does the Potency read?
Its Potency is inconclusive: 0.316 µM [inhibitor, full curve, poor fit].

Which Potency does the source give for `CCN1CCN(C(=O)C2CCN(c3nnc(-n4c(C)ccc4C)s3)CC2)CC1` here?
Its Potency is inconclusive: 10 µM [inhibitor, single point].

Which Potency does the source give for `CCOC(=O)c1oc2ccc(S(=O)(=O)Nc3ccc4c(c3)n(C)c(=O)n4C)cc2c1C` here?
The Potency was inconclusive: 7.94 µM [inhibitor, single point].

With `COC(=O)[C@@H]1C[C@]2(OC(=O)c3ccccc3)C=CC(=O)C[C@@H]2N1C(=O)OCc1ccccc1` as the molecule, how does the Potency read?
Its Potency is active: 3.16 µM.

For `Cc1cc(C(=O)O)ccc1-c1ccc(/C=C2\NC(=O)N(Cc3ccc(F)cc3)C2=O)o1`, which “activity change, negative = inhibition” value is on record?
Its value is inactive: 7.77%.

For `O=C1NC[C@H](Cc2ccccc2)N(C[C@H]2CCCN2C[C@H](Cc2ccccc2)N2C[C@H](Cc3ccc(O)cc3)N(CCc3ccccc3)C(=O)C2=O)C1=O`, which “activity change, negative = inhibition” value is on record?
Its value is inactive: -4.39%.

For `C=C1C(=O)O[C@@H]2[C@H]3O[C@]3(C)CC/C=C(\C)CC[C@@H]12`, which Potency is on record?
The Potency was inconclusive: 1.12 µM [inhibitor, single point].

For `CCN(C(=O)COC(=O)CCC1CCCC1)c1c(N)n(Cc2ccccc2)c(=O)[nH]c1=O`, which “activity change, negative = inhibition” value is on record?
Its value is inactive: 3.29%.

With `O=C(Nc1csc([N+](=O)[O-])c1)Nc1c(Cl)cccc1Cl` as the molecule, how does the Potency read?
Its Potency is inconclusive: 5.62 µM [inhibitor, single point].

With `COc1ccc(NC(=O)CSc2c3c(nc4ccccc24)CCC3)c(OC)c1` as the molecule, how does the Potency read?
The Potency was inconclusive: 1.26 µM [inhibitor, partial curve, poor fit].

Which Potency does the source give for `Cn1cnc([N+](=O)[O-])c1SCC(O)CN1CCCCC1` (centres undefined) here?
Its Potency is inconclusive: 0.0003 µM [inhibitor].

Which “activity change, negative = inhibition” value does the source give for `O=C(Nc1ccc(N2CCCC2)c(Cl)c1)c1ccc([N+](=O)[O-])o1` here?
The value was inactive: -3.89%.

With `COc1ccc(CCn2c(N)c(C#N)c3nc4ccccc4nc32)cc1OC` as the molecule, how does the “activity change, negative = inhibition” value read?
Its value is inactive: 5.59%.

For `COc1cc(/C=C/c2ccc3cccc(O)c3n2)cc(Br)c1OC`, which “activity change, negative = inhibition” value is on record?
Its value is inactive: -14.1%.

Which “activity change, negative = inhibition” value does the source give for `Cc1c(/C=N/N2C(=O)C3C4C=CC(C4)C3C2=O)c2ccccc2n1C` (centres undefined) here?
The value was inactive: 7.94%.

Which Potency does the source give for `COc1ccc2[nH]c3c(c2c1)CCN1C(=O)C(CC(=O)NCc2ccco2)C[C@H](C(=O)N2CCCCC2)[C@@]31C` (some centres undefined) here?
Its Potency is inconclusive: 28.2 µM [inhibitor, single point].

Which “activity change, negative = inhibition” value does the source give for `COc1ccc(NS(=O)(=O)c2cc(C)ccc2OC)cc1OC` here?
Its value is inactive: -5.5%.

Which Potency does the source give for `O=C(/C=C/c1ccc(Cl)cc1)Nc1ccc(S(=O)(=O)Nc2ncccn2)cc1` here?
Its Potency is inconclusive: 0.0141 µM [inhibitor, full curve, poor fit].

Which “activity change, negative = inhibition” value does the source give for `COc1ccc(/C=C2\SC(=S)N(CCC(=O)NCCCN3CCOCC3)C2=O)cc1` here?
The value was inactive: 13.4%.

Which “activity change, negative = inhibition” value does the source give for `O=C(O)c1ccccc1N=Nc1c(O)[nH]c2ccc([N+](=O)[O-])cc12` here?
Its value is inactive: 3.2%.

For `Cc1nc2ccc(C(=O)N3c4ccccc4CC3C)cc2s1` (centres undefined), which Potency is on record?
Its Potency is inconclusive: 12.6 µM [inhibitor, single point].

Which Potency does the source give for `O=C(N/N=C/c1ccc(N2CCOCC2)cc1)c1ccccn1` here?
Its Potency is inconclusive: 12.6 µM [inhibitor, partial curve, poor fit].

For `Nc1ccccc1O`, which Potency is on record?
The Potency was inconclusive: 3.98 µM [inhibitor, partial curve].

For `Cc1cccc(NC(=S)NC2CCCCCC2)c1C`, which “activity change, negative = inhibition” value is on record?
The value was inactive: -1.34%.

With `CCCOC(=O)c1ccc(NC(=O)c2cnccn2)cc1` as the molecule, how does the “activity change, negative = inhibition” value read?
The value was inactive: 2.77%.

With `CN(C)S(=O)(=O)c1cccc(NC(=O)COC(=O)c2ccc3ccccc3n2)c1` as the molecule, how does the “activity change, negative = inhibition” value read?
The value was inactive: -46.1%.

With `CN(C)CCCn1c(N)c(S(=O)(=O)c2ccccc2)c2nc3ccccc3nc21` as the molecule, how does the “activity change, negative = inhibition” value read?
Its value is inactive: 0.461%.

For `CN1CSC2=C(C#N)C(c3cccc(OCc4ccccc4)c3)CC(=O)N2C1` (centres undefined), which Potency is on record?
Its Potency is inconclusive: 8.91 µM [inhibitor, partial curve, poor fit].

For `CC[C@]12c3[nH]c4ccccc4c3CCN1C(=O)C(CC(=O)NCC13CC4CC(CC(C4)C1)C3)C[C@@H]2C(=O)N1CCN(C(=O)c2ccco2)CC1` (some centres undefined), which Potency is on record?
Its Potency is inconclusive: 28.2 µM [inhibitor, single point].
